These are yes or no findings as the source states them, for the method shown. In cells and extracts the contact can be indirect. These calls come from enrichment with a bait or labelling near it, and not all partners need be listed. Tags and fused reporters may be left off the sequences shown.
Molecular target: T1, TST-tagged ARGONAUTE 1 (TST–AGO1) (Arabidopsis thaliana) (UniProt O04379)
T1 sequence: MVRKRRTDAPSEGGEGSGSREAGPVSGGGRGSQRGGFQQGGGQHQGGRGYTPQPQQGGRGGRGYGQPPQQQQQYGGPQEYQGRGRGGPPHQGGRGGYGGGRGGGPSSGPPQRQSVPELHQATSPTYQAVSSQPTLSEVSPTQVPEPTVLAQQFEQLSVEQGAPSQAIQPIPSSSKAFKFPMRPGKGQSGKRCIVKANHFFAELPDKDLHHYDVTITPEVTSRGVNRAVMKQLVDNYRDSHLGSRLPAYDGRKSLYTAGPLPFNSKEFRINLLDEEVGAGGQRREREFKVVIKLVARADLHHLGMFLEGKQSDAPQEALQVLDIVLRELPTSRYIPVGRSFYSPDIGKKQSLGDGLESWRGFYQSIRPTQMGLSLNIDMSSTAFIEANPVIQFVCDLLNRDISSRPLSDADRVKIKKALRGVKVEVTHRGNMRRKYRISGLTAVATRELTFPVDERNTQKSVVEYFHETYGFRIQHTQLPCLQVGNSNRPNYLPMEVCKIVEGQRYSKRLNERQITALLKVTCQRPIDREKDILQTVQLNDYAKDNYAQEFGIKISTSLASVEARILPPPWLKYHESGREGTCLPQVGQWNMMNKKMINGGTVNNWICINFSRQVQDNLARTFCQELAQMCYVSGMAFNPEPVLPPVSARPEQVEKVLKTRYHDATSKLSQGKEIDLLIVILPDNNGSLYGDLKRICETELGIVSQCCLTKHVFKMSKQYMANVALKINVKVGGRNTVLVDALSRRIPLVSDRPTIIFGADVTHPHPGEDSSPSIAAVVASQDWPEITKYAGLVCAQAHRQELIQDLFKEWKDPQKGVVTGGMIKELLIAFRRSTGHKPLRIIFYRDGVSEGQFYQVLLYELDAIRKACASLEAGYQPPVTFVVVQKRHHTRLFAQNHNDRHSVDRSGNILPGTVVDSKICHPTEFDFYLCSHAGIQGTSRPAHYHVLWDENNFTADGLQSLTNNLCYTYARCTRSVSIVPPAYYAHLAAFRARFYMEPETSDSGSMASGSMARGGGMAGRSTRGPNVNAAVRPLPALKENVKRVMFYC
Assay: affinity purification with mass spectrometry; TST–AGO1 complexes from seedlings grown under Cu sufficiency (1 uM CuSO4) or Cu deficiency (100 uM BCS), purified on a Strep-Tactin XT spin column in native conditions; LC-MS/MS; proteins present in pAGO1:TST-GFP control purifications discarded

| Substance | binding |
| --- | --- |
| peroxidase PRX32 | binds |
| iron superoxide dismutase 1 (FeSOD1) | binds |
